# Several values for one entry are separate records, joined by “and”; a condition that tells them apart may be missing. Equal entries are not always repeated. This is one part of the list. Further columns of the screen follow, without active or inactive calls. Most of these compounds were active or inconclusive in the main read-out, so they are no random draw. Potencies come from curve fits of mixed quality, noted in brackets.
# Assay: qHTS Assay for Modulators of Lamin A Splicing
# Details: HeLa LMNA splicing GFP/RFP minigene ratio, 48 h
# How it was run: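 S3 HeLa cells stably expressing lamin A-EGFP splicing minigene plus DsRed2, 600 cells/well, 48 h compound exposure at 37C. Laser-scanning cytometry; analysed as GFP (500-530 nm)/RFP (575-640 nm) total intensity ratio; 0.5% DMSO vehicle.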
# [1] = measured here: GFP splicing reporter channel
# [2] = measured here: RFP viability control channel
Compound,AC50 [1],AC50 [2]
Cc1ccc2cc(COC(=O)C3CCCO3)c(=O)[nH]c2c1 (stereo not given),"11.2 µM [falling, partial curve, poor fit]","4.47 µM [falling, partial curve, poor fit]"
CCCCCCCCCCCNC(=O)c1ccoc1C,"15.8 µM [rising, single point]","22.4 µM [rising, single point]"
CSc1nc(Oc2ccc3ccccc3c2)c2sccc2n1,"35.5 µM [falling, single point]",
CCCN1CCc2nc(N3CCN(c4ncccn4)CC3)ncc2C1,"0.631 µM [rising, full curve, poor fit]","0.794 µM [rising, full curve, poor fit]"
Cc1nc2cc(-c3ccccc3)nn2c(C)c1CCC(=O)NC(C)c1ccc2c(c1)OCCO2 (stereo not given),"35.5 µM [rising, single point]","35.5 µM [rising, single point]"
COc1ccc(CCN2C(=O)C3C4C=CC(C3C2=O)C2C(=O)N(CCc3ccc(OC)c(OC)c3)C(=O)C42)cc1OC (stereo not given),"7.94 µM [rising, partial curve]","5.01 µM [rising, full curve]"
Cc1sc(NC(=O)Cc2ccc3c(c2)OCO3)nc1-c1ccc2c(c1)CCN2C(=O)c1ccc(F)cc1,"5.62 µM [rising, partial curve]","6.31 µM [rising, full curve]"
Cc1ccc2c(=O)c(C(=O)c3ccc(F)cc3)cn(CC(=O)NCCc3ccccc3)c2n1,"11.2 µM [falling, partial curve, poor fit]",
O=[N+]([O-])c1ccc(C(=S)N2CCC(Cc3ccccc3)CC2)cc1,"10 µM [rising, partial curve, poor fit]","12.6 µM [rising, partial curve]"
O=[N+]([O-])c1ccc(O)c(/C=N/Nc2nc3ccccc3[nH]2)c1,,"3.16 µM [rising, full curve]"
CCCC(=O)Nc1ccc(C(=O)/C=C/c2ccc(SC)cc2)cc1,"14.1 µM [falling, single point]","20 µM [falling, partial curve]"
O=C1CNC(=O)N1CC(O)Cn1c2ccccc2c2ccccc21 (stereo not given),,"0.0447 µM [rising, full curve, poor fit]"
CC(Sc1nc2c(cc1C#N)CCCCC2)C(=O)O (stereo not given),"39.8 µM [falling, partial curve, poor fit]",
Cc1cccc(Oc2ccc(S(=O)(=O)N3CCCCC3)cc2N)c1,"17.8 µM [falling, single point]",
O=S(=O)(c1cccs1)N1CCN(CC(O)COc2cc(Cl)ccc2Cl)CC1 (stereo not given),"35.5 µM [rising, single point]","0.794 µM [rising, full curve, poor fit]"
Cn1cc([N+](=O)[O-])c(C(=O)Nc2ccn(Cc3c(F)c(F)cc(F)c3F)n2)n1,"35.5 µM [falling, single point]",
COc1ccc(/C=C2/CCc3ccccc3C2=O)cc1OC,"6.31 µM [rising, partial curve, poor fit]","22.4 µM [rising, partial curve]"
O=C(CCn1c(=S)[nH]c2ccccc2c1=O)NCCCN1CCCC1=O,"0.631 µM [falling, full curve, poor fit]","0.631 µM [falling, full curve, poor fit]"
CCCCC(=O)Nc1ccc(NC(=S)NC(=O)CC(C)C)cc1OC,"0.158 µM [falling, full curve, poor fit]","0.0126 µM [falling, full curve, poor fit]"
Clc1ccc(CSc2nnc(-c3ccccn3)n2Cc2ccco2)c(Cl)c1,"31.6 µM [rising, single point]","35.5 µM [rising, single point]"
CC(C)(C)[C@]1(O)CCN2C[C@H]3c4ccccc4CCc4cccc(c43)[C@@H]2C1,"0.178 µM [falling, full curve]","35.5 µM [rising, single point]"
CCOC(=O)c1sc2nc(CC(=O)OC)nc(N3CCN(c4ccccn4)CC3)c2c1C,"35.5 µM [rising, single point]","35.5 µM [rising, single point]"
COc1cccc(C2=CC(c3ccccc3F)n3c(nc4ccccc43)N2)c1 (stereo not given),,"0.158 µM [falling, full curve, poor fit]"
COc1ccccc1OC(C)C(=O)Nc1nc(-c2ccc(S(=O)(=O)N3CCOCC3)cc2)cs1 (stereo not given),,"12.6 µM [rising, single point]"
COc1ccc(S(=O)(=O)NN(C)c2nc(C(F)(F)F)nc3ccccc23)cc1,,"7.94 µM [falling, partial curve]"
Cc1[nH]c(=S)sc1Cc1ccc(Cl)c(Cl)c1,"15.8 µM [rising, single point]","25.1 µM [rising, single point]"

Compound,AC50 [1],AC50 [2]
O=C(COc1cccc2ccccc12)NCc1cccnc1,"0.0112 µM [falling, full curve, poor fit]",
COCC(=O)N1c2nc(-c3ccco3)nn2C2(CCCCC2)[C@@H]2CCCC[C@@H]21,,"14.1 µM [falling, partial curve, poor fit]"
CCc1ccc2nc(N3C(=O)C(O)=C(C(=O)c4ccco4)C3c3cccs3)sc2c1 (stereo not given),,"35.5 µM [rising, single point]"
CC(C)[C@H](NC(=O)c1cccc(S(=O)(=O)N2CCOCC2)c1)C(=O)Nc1nc2ccccc2s1,,"22.4 µM [rising, partial curve]"
COc1ccc(C2=C(CN(C)C)C(c3ccccc3)c3ccccc3O2)cc1 (stereo not given),"1.58 µM [falling, full curve, poor fit]","4.47 µM [falling, partial curve] and 35.5 µM [rising, single point]"
CCOC(=O)c1c(N2C(=O)CC(Sc3ccccc3C(=O)O)C2=O)sc2c1CCCC2 (stereo not given),"12.6 µM [falling, partial curve, poor fit]","10 µM [falling, partial curve, poor fit]"
COc1ccc(S(=O)(=O)N2CCN(Cc3cccc(Cl)c3)CC2)cc1,,"31.6 µM [rising, single point]"
Cc1cccc(Oc2ncnc(N)c2[N+](=O)[O-])c1,,"12.6 µM [rising, partial curve]"
CCOc1ccccc1NC(=O)CN1C=NS(=O)(=O)c2ccccc21,"0.00447 µM [rising, full curve, poor fit]","2.51 µM [rising, full curve, poor fit]"
Cc1nn(CC(=O)NCc2ccccc2F)c(C)c1[N+](=O)[O-],,"0.0316 µM [falling, full curve, poor fit]"
O=C(CN1CCN(CCN2C(=O)c3cccc4cccc(c34)C2=O)CC1)c1ccc(Cl)cc1,,"0.00316 µM [rising, full curve, poor fit]"
O=C(Nc1ccc(CN2CCOCC2)cc1)c1cccc(-c2cc3ccccc3oc2=O)c1,,"17.8 µM [rising, single point]"
O=C(C1CC1c1ccccc1)N1CCN(c2cccc(Cl)c2)CC1 (stereo not given),"20 µM [rising, partial curve, poor fit]","25.1 µM [rising, single point]"
Nc1ccc(-n2ccnc2)cc1,,"35.5 µM [rising, single point]"
Cc1ccsc1C(=O)Nc1ccc(F)c([N+](=O)[O-])c1,,"14.1 µM [rising, single point]"
COCCCNC(=O)CSC1=Nc2ccccc2C2=NC(CC(=O)NCc3ccccc3)C(=O)N12 (stereo not given),,"0.447 µM [falling, full curve, poor fit]"
CNc1nc(-c2ccc(Cl)cc2)cs1,"12.6 µM [rising, single point]",
Cc1ccccc1NS(=O)(=O)c1ccc(OCC(=O)NCc2ccccn2)cc1,,"0.562 µM [rising, partial curve, poor fit]"
O=C(COc1ccccc1[N+](=O)[O-])Nc1ccc(-c2nc3ccccc3s2)cc1,"7.08 µM [falling, partial curve, poor fit]","35.5 µM [falling, single point]"
N/C(=N\OC(=O)/C=C/c1ccccc1)c1cccnc1,,"15.8 µM [falling, single point]"
CCCCN=C1NN=C(c2cccc([N+](=O)[O-])c2)CS1,"31.6 µM [rising, single point]","28.2 µM [rising, single point]"
CC(=O)O[C@H]1C(=O)[C@@]2(C)[C@H]([C@H](OC(=O)c3ccccc3)[C@]3(O)C[C@H](OC(=O)[C@H](O)C(NC(=O)c4ccccc4)c4ccccc4)C(C)=C1C3(C)C)[C@]1(OC(C)=O)CO[C@@H]1C[C@@H]2O (stereo not given in full),"0.0355 µM [falling, full curve, poor fit]","0.0355 µM [falling, full curve]"
O=C(OCn1ncc(Br)c(Br)c1=O)c1ccccc1Cl,,"35.5 µM [rising, single point]"
O=C(CN1CCCN(S(=O)(=O)c2ccc(Br)s2)CC1)Nc1ccc(Cl)cc1,"14.1 µM [rising, single point]","35.5 µM [rising, single point]"
Cc1nc2ccccc2c(=O)n1Nc1cccc(Cl)c1,,"0.00316 µM [falling, full curve, poor fit]"

# An excerpt from above in order of number of heavy atoms, high to low:
Compound,AC50 [1],AC50 [2]
Cc1nc2cc(-c3ccccc3)nn2c(C)c1CCC(=O)NC(C)c1ccc2c(c1)OCCO2 (stereo not given),"35.5 µM [rising, single point]","35.5 µM [rising, single point]"
O=C(CN1CCN(CCN2C(=O)c3cccc4cccc(c34)C2=O)CC1)c1ccc(Cl)cc1,,"0.00316 µM [rising, full curve, poor fit]"
Cc1ccccc1NS(=O)(=O)c1ccc(OCC(=O)NCc2ccccn2)cc1,,"0.562 µM [rising, partial curve, poor fit]"
Cn1cc([N+](=O)[O-])c(C(=O)Nc2ccn(Cc3c(F)c(F)cc(F)c3F)n2)n1,"35.5 µM [falling, single point]",
O=C(CN1CCCN(S(=O)(=O)c2ccc(Br)s2)CC1)Nc1ccc(Cl)cc1,"14.1 µM [rising, single point]","35.5 µM [rising, single point]"
CCOc1ccccc1NC(=O)CN1C=NS(=O)(=O)c2ccccc21,"0.00447 µM [rising, full curve, poor fit]","2.51 µM [rising, full curve, poor fit]"
O=C(C1CC1c1ccccc1)N1CCN(c2cccc(Cl)c2)CC1 (stereo not given),"20 µM [rising, partial curve, poor fit]","25.1 µM [rising, single point]"
CSc1nc(Oc2ccc3ccccc3c2)c2sccc2n1,"35.5 µM [falling, single point]",
Cc1ccc2cc(COC(=O)C3CCCO3)c(=O)[nH]c2c1 (stereo not given),"11.2 µM [falling, partial curve, poor fit]","4.47 µM [falling, partial curve, poor fit]"
CCCCCCCCCCCNC(=O)c1ccoc1C,"15.8 µM [rising, single point]","22.4 µM [rising, single point]"
CC(Sc1nc2c(cc1C#N)CCCCC2)C(=O)O (stereo not given),"39.8 µM [falling, partial curve, poor fit]",
CNc1nc(-c2ccc(Cl)cc2)cs1,"12.6 µM [rising, single point]",

# Reference: PubChem BioAssay AID1487 (National Center for Advancing Translational Sciences (NCATS), 2009)
